Results published in article PMC8062530.
These are yes or no findings as the source states them, for the method shown. Some binding calls cover weakened binding; strength is not graded here. Tags and fused reporters may be left off the sequences shown.

Protein sequences, listed by entry. Tags and fused reporters are not part of them. Residues count along the entry.
UniProt Q9Y336, residues 18-348: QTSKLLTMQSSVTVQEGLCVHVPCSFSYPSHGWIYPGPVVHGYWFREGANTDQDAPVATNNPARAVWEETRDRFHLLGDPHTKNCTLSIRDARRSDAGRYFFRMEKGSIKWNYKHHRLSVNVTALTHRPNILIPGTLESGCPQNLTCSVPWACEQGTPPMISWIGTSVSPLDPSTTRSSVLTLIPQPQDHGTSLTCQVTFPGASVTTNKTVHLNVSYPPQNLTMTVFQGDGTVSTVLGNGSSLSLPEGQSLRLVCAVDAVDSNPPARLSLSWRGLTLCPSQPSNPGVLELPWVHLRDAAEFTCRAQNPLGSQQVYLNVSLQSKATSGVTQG

How the values were obtained:
Assay in all cases: BLI; Fc-fusions of the Siglec proteins immobilised on Protein A biosensors (ForteBio) at 5 µg/mL; PTGFRN extracellular domain in 2-fold serial dilutions starting at 100 µg/mL; equilibrium dissociation constants calculated with ForteBio Data Analysis software v. 10.0; both purified
Siglec-10 Fc-fusion = molecular target: T1, Siglec-10 Fc-fusion (UniProt Q96LC7)
T1 sequence: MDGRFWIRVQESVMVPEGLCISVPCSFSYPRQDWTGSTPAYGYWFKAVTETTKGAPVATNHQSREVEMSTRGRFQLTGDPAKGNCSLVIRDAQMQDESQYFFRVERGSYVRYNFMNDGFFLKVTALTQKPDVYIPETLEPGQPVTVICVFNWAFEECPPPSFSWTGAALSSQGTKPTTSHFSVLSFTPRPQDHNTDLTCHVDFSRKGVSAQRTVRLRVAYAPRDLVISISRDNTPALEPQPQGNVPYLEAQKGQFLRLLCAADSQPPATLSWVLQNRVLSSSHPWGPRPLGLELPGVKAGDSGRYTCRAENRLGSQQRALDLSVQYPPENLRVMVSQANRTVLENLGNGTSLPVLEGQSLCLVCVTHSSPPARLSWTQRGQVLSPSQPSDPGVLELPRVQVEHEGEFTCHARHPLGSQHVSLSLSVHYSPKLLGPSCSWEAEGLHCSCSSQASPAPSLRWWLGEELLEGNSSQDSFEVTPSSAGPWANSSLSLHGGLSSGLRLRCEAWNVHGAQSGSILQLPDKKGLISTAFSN

Siglec-14 Fc-fusion = molecular target: T2, Siglec-14 Fc-fusion (UniProt Q08ET2)
T2 sequence: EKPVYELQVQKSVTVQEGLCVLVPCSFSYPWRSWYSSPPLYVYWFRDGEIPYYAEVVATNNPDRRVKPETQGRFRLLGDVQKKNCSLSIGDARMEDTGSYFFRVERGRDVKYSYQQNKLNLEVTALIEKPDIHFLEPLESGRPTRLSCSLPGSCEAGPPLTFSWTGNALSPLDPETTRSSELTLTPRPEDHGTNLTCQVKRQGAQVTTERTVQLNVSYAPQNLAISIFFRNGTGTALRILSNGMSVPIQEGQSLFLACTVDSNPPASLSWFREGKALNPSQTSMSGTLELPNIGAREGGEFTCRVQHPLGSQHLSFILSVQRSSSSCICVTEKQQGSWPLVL

Siglec-9 Fc-fusion = Siglec-9 Fc-fusion (UniProt Q9Y336)

Measured: binding

B1: extracellular domain of PTGFRN (aa 26-832) with a C-terminal histidine tag (domain or fragment, UniProt Q9P2B2 26-832)
chain: VPTATLVRVVGTELVIPCNVSDYDGPSEQNFDWSFSSLGSSFVELASTWEVGFPAQLYQERLQRGEILLRRTANDAVELHIKNVQPSDQGHYKCSTPSTDATVQGNYEDTVQVKVLADSLHVGPSARPPPSLSLREGEPFELRCTAASASPLHTHLALLWEVHRGPARRSVLALTHEGRFHPGLGYEQRYHSGDVRLDTVGSDAYRLSVSRALSADQGSYRCIVSEWIAEQGNWQEIQEKAVEVATVVIQPSVLRAAVPKNVSVAEGKELDLTCNITTDRADDVRPEVTWSFSRMPDSTLPGSRVLARLDRDSLVHSSPHVALSHVDARSYHLLVRDVSKENSGYYYCHVSLWAPGHNRSWHKVAEAVSSPAGVGVTWLEPDYQVYLNASKVPGFADDPTELACRVVDTKSGEANVRFTVSWYYRMNRRSDNVVTSELLAVMDGDWTLKYGERSKQRAQDGDFIFSKEHTDTFNFRIQRTTEEDRGNYYCVVSAWTKQRNNSWVKSKDVFSKPVNIFWALEDSVLVVKARQPKPFFAAGNTFEMTCKVSSKNIKSPRYSVLIMAEKPVGDLSSPNETKYIISLDQDSVVKLENWTDASRVDGVVLEKVQEDEFRYRMYQTQVSDAGLYRCMVTAWSPVRGSLWREAATSLSNPIEIDFQTSGPIFNASVHSDTPSVIRGDLIKLFCIITVEGAALDPDDMAFDVSWFAVHSFGLDKAPVLLSSLDRKGIVTTSRRDWKSDLSLERVSVLEFLLQVHGSEDQDFGNYYCSVTPWVKSPTGSWQKEAEIHSKPVFITVKMDVLNAFKYP
binds: all assays above
